Measured values as given in patent US20200165653A1, “METHOD OF MEASURING FLUID SECRETION FUNCTION OF EPITHELIAL CELLS” (NATIONAL UNIVERSITY CORPORATION TOKYO MEDICAL AND DENTAL …, priority 2017, published 2020).
At least one structure is not confirmed: it was looked up by name or label, or the drawing left a doubt.

Columns and labels:
[1] = tested on: human intestinal organoids; test: Organoid swelling observed by phase contrast / time-lapse imaging; format: cell-based
Procedure: The phase contrast images illustrated are prior to swelling induction and 60 minutes after swelling induction. Scale-bar: 100 μm. Induction was by the addition to a culture medium of: PGE2 (10^−8 M, (A)), VIP (10^−7 M, (B)), ACh (10^−3 M, (C)), histamine (10^−3 M, (D)), bradykinin (10^−5 M, (E)), and serotonin (10^−3 M, (F)).
Examination of Endogenous Mediator Candidates for Anion/Fluid Secretion Next, the fluid secretion function measurement method of the present embodiment was employed to examine the direct effect of various endogenous mediators that might possibly induce anion/fluid secretion from intestinal epithelial cells by testing six types of endogenous mediators to determine if they had the capability to induce a swelling response in organoids equivalent to that of forskolin-induced swelling.

[2] = tested on: human jejunum-derived organoids; test: Organoid swelling response quantified by cross-sectional area with 3D-scanning system; format: cell-based; details: human jejunal organoid; FIG. 12
Procedure: The organoid cross-sectional area was measured using a 3D-Scanning System (Cell3 […], Screen Holdings, Kyoto, Japan) as the image analysis device 100. […] After the passage of a preliminary culture process of leaving for 24 hours after seeding, scanning was then performed both before and 30 min after the addition of the reagent subject to analysis. An image was acquired during scanning in auto-focus (AF) mode. The analysis parameters summarized in following Table 1 were set and the cross-sectional area of recognized organoids measured automatically. Note that changes over time due to the addition of a reagent subjected to analysis can be observed in the following manner. […] By performing the selection process and the determination process, the change over time observations are only made for objects determined be subjected to analysis thereby at both time T0 and time TN. Then in an area change calculation process, an area (A0) at time T0 and an area (AN) at time TN are calculated for the objects subject to analysis. […] (AN-A0)/A0×100 Using forskolin-induced swelling as a positive control, testing was next performed so see if such a swelling response could be quantified using the 3D-scanning system described. To optimize the quantification efficiency and accuracy, organoids were subjected to analysis after performing the preliminary culture process at one day after the last passage. […]

SMILES	swelling response to forskolin addition ([1]; small intestinal organoids, 10 days after passage, forskolin 10^−5 M, phase contrast images)	increase in cross-sectional area of organoids ([1]; 60 min after induction, same mediator concentrations as FIG. 11)	swelling response induced by endogenous mediator ([1]; PGE2 10^−8 M, VIP 10^−7 M, ACh 10^−3 M, histamine 10^−3 M, bradykinin 10^−5 M, serotonin 10^−3 M, up to 60 min after induction)	dose-response curve profile of swelling [2]
C=C[C@@]1(C)CC(=O)[C@]2(O)[C@@]3(C)[C@@H](O)CCC(C)(C)[C@@H]3[C@H](O)[C@H](OC(C)=O)[C@@]2(C)O1 [forskolin]	rapid swelling response	–	–	–
CC(=O)OCC[N+](C)(C)C [acetylcholine]	–	smaller than for PGE2 or VIP	slow and limited response	markedly lower response profile
